Results from patent publication US8691855B2, “Compounds, isomer thereof, or pharmaceutically acceptable salts thereof as vanilloid receptor antagonist and pharmaceutical compositions containing the same” (Amorepacific Corporation, priority 2008, dated 2014).

Sequences of proteins named here, by UniProt entry; tags and fusion partners are left off.
UniProt O35433, whole entry: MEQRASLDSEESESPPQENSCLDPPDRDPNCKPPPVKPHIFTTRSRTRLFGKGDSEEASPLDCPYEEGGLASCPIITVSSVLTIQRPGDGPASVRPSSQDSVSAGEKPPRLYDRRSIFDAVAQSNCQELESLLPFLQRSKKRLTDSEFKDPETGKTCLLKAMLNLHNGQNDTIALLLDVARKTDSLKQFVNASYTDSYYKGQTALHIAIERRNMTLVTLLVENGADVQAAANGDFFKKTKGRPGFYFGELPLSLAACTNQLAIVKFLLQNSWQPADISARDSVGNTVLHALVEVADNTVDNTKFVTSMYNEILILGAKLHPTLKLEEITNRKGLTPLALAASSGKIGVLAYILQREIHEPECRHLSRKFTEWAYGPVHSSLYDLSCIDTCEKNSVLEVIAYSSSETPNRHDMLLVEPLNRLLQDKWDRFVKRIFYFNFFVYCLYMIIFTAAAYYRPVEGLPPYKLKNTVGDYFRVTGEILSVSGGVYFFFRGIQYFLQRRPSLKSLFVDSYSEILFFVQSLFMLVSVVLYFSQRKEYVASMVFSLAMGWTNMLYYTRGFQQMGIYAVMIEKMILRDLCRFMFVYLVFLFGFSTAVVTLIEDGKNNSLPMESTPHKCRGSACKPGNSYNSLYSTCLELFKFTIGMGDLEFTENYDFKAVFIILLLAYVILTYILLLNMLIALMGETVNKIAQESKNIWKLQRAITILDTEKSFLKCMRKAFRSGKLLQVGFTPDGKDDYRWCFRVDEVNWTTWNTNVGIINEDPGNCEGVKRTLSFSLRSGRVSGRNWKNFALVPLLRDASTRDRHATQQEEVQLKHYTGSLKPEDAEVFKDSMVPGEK

Target: T1, vanilloid receptor (Rattus norvegicus, UniProt O35433)
T1 construct: DRG nerve cells from the primary culture of 2 days were equilibrated; endogenous in cells; host or cells: primary culture of dorsal root ganglion neurons from neonatal SD rats
Assay: 45Ca influx test (antagonist calcium uptake test) in rat DRG neurons stimulated with capsaicin
Type: cell-based
Conditions: DRG neuron, neonatal SD rat DRG neurons, capsaicin 0.5 μM, read-out: Antagonist Calcium Uptake Test, percent inhibition of capsaicin response
Method: 1) Separation of spinal dorsal root ganglia (DRG) in newborn rats and primary culture thereof
Neonatal (2-3 clay old or younger than 2-3 day old) SD rats were put in ice for 5 minutes to anesthetize and disinfected with 70% ethanol. DRG of all part of spinal cord were dissected (Wood et al., 1988, J. Neurosci. 8, pp 3208-3220) and collected in DME/F12 medium to which 1.2 g/l sodium bicarbonate and 50 mg/l gentamycin were added. The DRG were incubated sequentially at 37° C. for 30 mins in 200 U/ml collagenase and 2.5 mg/ml trypsin, separately. The ganglia were washed twice with DME/F12 medium supplemented with 10% horse serum, triturated through a fire-polished Pasteur pipette, filtered through Nitex 80 membrane to obtain single cell suspension and the suspension was washed once more. This was subjected to centrifugation, then resuspended in cell culture medium at certain level of cell density. […]
DRG nerve cells from the primary culture of 2 days were equilibrated by washing 4 times with HEPES (10 mM, pH 7.4)-buffered Ca^2+, Mg^2+-free HBSS (H-HBSS). […] After the addition of scintillation cocktail of into each well, the amount of ^45Ca influx into neuron was measured by counting radioactivity. […]

inhibition at 10 µM: 82%
Compound: C[C@@H](NC(=O)c1coc(-c2cc(C3CC3)cc(C3CC3)c2)n1)c1cc(F)c(NS(C)(=O)=O)c(F)c1 [Example 106, 2-(3,5-Dicyclopropyl-phenyl)-oxazole-4-carboxylic acid [1-(3,5-difluoro-4-methanesulfonylamino-phenyl)-ethyl]-amide]
